These are yes or no findings as the source states them, for the method shown. Some results given as binding are weak or reduced against the parent protein; the word gives no strength.
Target: DNA polymerase III α subunit, full-length (E. coli) (UniProt P10443)
Assay: FRET or BRET; α labeled with Alexa Fluor 647 C2-maleimide (acceptor) and β labeled with Alexa Fluor 488 C5-maleimide (donor); purified UmuD variants added to 40 μM; both purified

The chains behind the UniProt entries cited, without tags or fusion partners.
UniProt P10443: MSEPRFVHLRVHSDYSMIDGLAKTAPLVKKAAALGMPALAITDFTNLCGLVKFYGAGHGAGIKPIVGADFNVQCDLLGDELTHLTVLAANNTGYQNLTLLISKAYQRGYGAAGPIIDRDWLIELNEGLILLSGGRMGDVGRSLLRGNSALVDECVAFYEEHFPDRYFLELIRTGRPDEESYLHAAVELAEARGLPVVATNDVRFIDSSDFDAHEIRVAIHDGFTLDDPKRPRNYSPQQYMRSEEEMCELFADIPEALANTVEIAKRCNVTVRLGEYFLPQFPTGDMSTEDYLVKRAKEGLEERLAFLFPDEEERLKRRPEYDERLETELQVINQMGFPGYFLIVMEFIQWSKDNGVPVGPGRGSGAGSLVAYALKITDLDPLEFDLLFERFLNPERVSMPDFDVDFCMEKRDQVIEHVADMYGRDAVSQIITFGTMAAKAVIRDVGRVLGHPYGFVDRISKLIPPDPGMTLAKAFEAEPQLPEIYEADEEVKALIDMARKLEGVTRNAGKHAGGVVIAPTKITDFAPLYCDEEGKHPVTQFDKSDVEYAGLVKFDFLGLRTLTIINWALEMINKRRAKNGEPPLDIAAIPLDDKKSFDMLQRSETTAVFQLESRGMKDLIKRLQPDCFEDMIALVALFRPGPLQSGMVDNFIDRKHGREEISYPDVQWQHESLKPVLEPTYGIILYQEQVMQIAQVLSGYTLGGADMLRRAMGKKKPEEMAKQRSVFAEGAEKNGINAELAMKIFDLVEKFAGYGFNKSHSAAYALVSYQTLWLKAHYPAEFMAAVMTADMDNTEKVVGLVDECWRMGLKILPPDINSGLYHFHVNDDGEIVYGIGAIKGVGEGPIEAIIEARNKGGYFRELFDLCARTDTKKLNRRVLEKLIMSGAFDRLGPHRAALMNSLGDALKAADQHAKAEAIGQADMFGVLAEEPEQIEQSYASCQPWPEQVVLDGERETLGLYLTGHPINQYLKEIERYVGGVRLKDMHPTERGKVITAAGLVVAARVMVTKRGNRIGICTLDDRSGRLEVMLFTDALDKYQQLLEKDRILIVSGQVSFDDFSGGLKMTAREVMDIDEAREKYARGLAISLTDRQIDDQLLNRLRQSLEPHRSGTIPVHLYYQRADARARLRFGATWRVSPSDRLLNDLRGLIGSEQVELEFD
UniProt P0AG11: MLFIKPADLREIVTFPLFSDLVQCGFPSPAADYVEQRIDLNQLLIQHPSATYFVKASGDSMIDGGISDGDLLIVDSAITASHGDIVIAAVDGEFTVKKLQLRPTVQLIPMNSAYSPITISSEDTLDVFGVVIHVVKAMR

“wild-type UmuD (from UniProt P0AG11 1-139)” was tested, and the binding was “binds”.
